Values quoted from earlier work, collected in patent US20150209426A1, “TREATMENT OF CANCER” (Boehringer Ingelheim International GmbH, priority 2014, published 2015).
For at least one compound, name, drawing or mass did not settle the structure.

Test system: serum IGF bioactivity
Details: in mice; cited from earlier work

CO[C@H]1C[C@@H]2CC[C@@H](C)[C@@](O)(O2)C(=O)C(=O)N2CCCC[C@H]2C(=O)O[C@H]([C@H](C)C[C@@H]2CC[C@@H](O)[C@H](OC)C2)CC(=O)[C@H](C)/C=C(\C)[C@@H](O)[C@@H](OC)C(=O)[C@H](C)C[C@H](C)/C=C/C=C/C=C/1C [rapamycin]
serum IGF bioactivity: increase the serum IGF bioactivity
